The RNAGym collection of RNA variant scans (doi:10.1126/science.aae0568)
Variants at the floor of the assay are shown more often than the library holds them.

B1: tRNA (parent)
chain: GUUCCGUUGGCGUAAUGGUAACGCGUCUCCCUCCUAAGGAGAAGACUGCGGGUUCGAGUCCCGUACGGAACG

Variants of: B1
Test: yeast fitness relative to wild type (ratio to wild type); higher = fitter; tRNA-Arg(CCU), competitive growth, 37 C, YPD
How it was run: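 The tRNA-Arg(CCU) gene variants were made by chemical synthesis with a 3% per-site mutation rate at 69 sites and inserted at the native genomic locus of Saccharomyces cerevisiae. After pooling, the strains were competed in YPD at 37°C for 24 hours in six parallel replicates. Gene amplicons from the start population and each end population were read by 100-nucleotide paired-end sequencing, and Darwinian fitness relative to wild type was taken from genotype frequency changes. Genotypes needed ≥ 100 starting reads, and estimates < 0.5 were set to 0.5.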

Variant	yeast fitness
GUUCCGUUGGCCUAAUGGUGAUGCGUCUCCCUCUUAAGGAGAAGACUGGGGGUUCGAGUCCCGUACGGAACG	≤ 0.5
GUUCCGUUGGUGUAAUGGUAACGGGUGUCCCUCCUAAGGAGAAGACUGCGGGUUCGAGUCCCGUACGGCACG	≤ 0.5
GUUCGGUUGGCGUAGUGGUAACGCGUCUCCCUCCUAAGGAGAAGACUGCGGGUUCGAGUCCCGUACAGAACG	≤ 0.5
GUUCCGUUGGCGUAAUGGUAACGCGUCUCCCUCCUAAAGAGAAGACUAGGGGUUCGAAUCCCGUACGGAACG	≤ 0.5
GUUCCGUUGGCGUAAUGGUAUCGCGUCUCGCUCCUAAGGAGAAGACUGCGGGAUCGAGUCCCGUACGGAACG	≤ 0.5
GUUCCGUUGGGGUAAUGGUAACGCAUCUCCCUCCUAAGGAGAAGACUGCGGGUUCGAGUACUGUACGCAACG	≤ 0.5
GUUCCGUUGGCGUAAUGGUAACGCGUCUCUCUCCUAAGGAGAAGACUGCGCGUUCGACUCCCGUACGGAACG	≤ 0.5
GUUCCGUUGGCGUAAUGGUAAUGCGUCUUCCUCCUAAGGAAAAGACUGCGGGUUUGAGUCACGUACGGAACG	≤ 0.5
GUUCCGUUGGCGUAAUGGUAACGCGUCUCCGUCCUAAGGAGAAGAGUGCGGGUUCAAGUCCCGUCCCGAACG	≤ 0.5
GUUCCGUUGGCGCAAUGGUAACCCGUCUGCCUCCUAAGGAGAUGACUGCAGGUUCGAGUCCCGUCCGGAACG	≤ 0.5
GUUCCGUUGGUGCAAUGGUAACGAGUCUCCCUCCUAAGGAGACGACUGCCGGUUCGAGUGCCGUACGGAACG	≤ 0.5
GUUCCGUUGGCGUAAUGGUAACGCGUCUCCCUCCUAAGGAGCAGACUGCGGGUUGGAGUCCCGUACGGAACG	0.612
GUUCCGUUGGCGUAAUAGUAAAGCAUCUCCCUCCUAAGGAGAAGACUGCGAGUUCGAGUCCCGUACGGUGCG	≤ 0.5
GUUCCGUUGGCGUAAUGGUAACGCGUCUUCCUCCUAAGGAGAAGACCGCGGGUUCGAGUCCCGUACGGAACG	0.923
GUUAUGUUGGCGUAAUGGUAACGCGUCUGCCUUCUAAGGAGAAGACAGCGAGUUCGAGUCUCGUACGGAACG	≤ 0.5
GUUCUGUUGGCGUAAUGGUAACGCGUCUCCCUCCUAAGGAGAAGACUGCGGGUUCAAGUCCGGUACGGAACG	≤ 0.5
GUUACGUUGGCGUAAUAGUAACGCGUGUCCCUCCUAAGGAGAAGACUGCGGGUUUGAGUCCCAUACGGAACG	≤ 0.5
GUUCCGUUGGCGUAAUGGUAACGCAUCUCCCUCGUAAGGAGAAGACUGUGGGUCCGAGUGCCGUACGGAACG	≤ 0.5
GUUCCGUUGGCGUAAUGGUAACGCGUCUCCCUCCUAAGGAGAAGACUGCGGGUUCGAGUUACGUACAGCACG	≤ 0.5

Variant	yeast fitness
GUUCCGUUCGCGUAAUGGUAACGCGUCUCCCUCCUAAGGAGGAGACUGCGGGUUCGAGUCCGGUACGGAACG	≤ 0.5
GUUCCGUUGGCGUAAUGGUAACGCGUCUCCCUCCUAAGGAGAAAACUGCGGGUUCGAGUCCCGUUCGGAACG	0.816
GUUCCGUUGGUGUAAUGGUGACGAGUCUCCCUCCUAAGGAGUAGACUGCGGGUUCGAGUCCCGUACGGAACG	≤ 0.5
GUUCCGUUGGCGUAAUGGUAACGCGUCUCCCUGCUAAGGAGAAGCCUGCGGGCUCGAGUCCUGUACGGAACG	≤ 0.5
GUUCCGUUGGCGUAUUGGUAACGCGUCUCCCUCCUAAGGAGAAGACUGCGGGUUCGAGUCCCCUAGGGAACG	≤ 0.5
GUUCCGUUGGCGUAAUGGUAACGCGUCUACCUCCUAAGGAGAUGACUGCGGGUUCGAGUCCCGAACGGAACG	≤ 0.5
GAUACGUUGGCGUAAUGGUAACGCGUCUCCCUCCUAAGGAGGAGAUUGCGGGUUCGAGUCCCGUACGGAACG	≤ 0.5
GUUCCGUUGCCGUAAUGGUAACGCGUUUCCCUCCUAAGGAGAGGACUGCGGGUUCGAGUCCCGUACGGUACG	≤ 0.5
GUUCCGUUGGCGUAAUGCUAACGCGUCGCCCUCCUAAGGAGAAGCCUGCGGGUUCGAGUCCCGUAAGGAACG	≤ 0.5
GUUCCGUUGGCGUAAUGGUAACGCGUCUCUCUCCAAAGGAGAAGACUGCGGGUUCGAGUCCCCUUCGGAACG	≤ 0.5
GUUCCGUUCGCGUAAGGGUAACGCGUCUCCCUCCUAAGGAGAAGACUGCGGGUUCGAGUACCGUACGGAACG	≤ 0.5
GUUCCGUUGGCGUAAUCGUAACGCGUCUCCCUCCUAAGGAGGAGACUGCGGGUUCGAGUCCCGUACGGAGCG	≤ 0.5
GUUCCGUUGGCGUAAUGGUAACGCGUCUCCCUCCUAAGGAGAAGUAUGCGGGUUCGAGUCCCAUACGGAACG	1.06
GUUCCGUUGGCGAAAUGGUAACGCGUCUCCCUCCUAAGGAGAAGGCUGCGGGUUCGACUCCCGUACGGUUCG	0.603
GUUCCGUUGGCGUAAUAGUAAGGCGUAUCCCUCCUAAGGAGAGGACUGCGGGUUCGAGUCCCGUACGGAACG	≤ 0.5
GUUCCGUUGGGGUAAAGGUAUCCCGUCUCCCUCCUAAGGAGAAGACUGCGGGUUCGUGUCCCGUACGGAACG	≤ 0.5
GUCCCGUUGGCGUAAUGGUAACGCGUCUCCCUCCUAAGGGGAAGACUGGGGGUUCGAGGCCCGUACCGAACG	≤ 0.5
GUUCCGUUGGCGUACUGGUAACGCGUCUCCCUACUAAGGAGAAGAGUGCGGGUUCGAGUCCCGUACGGAACG	≤ 0.5
